Test results from patent US12419871B2, “Biomolecules involved in Alzheimer's disease” (ELECTROPHORETICS LIMITED, priority 2015, dated 2025).

B1: Q9NP90 (protein, UniProt Q9NP90 1-201, looked up)
chain: MSGKSLLLKVILLGDGGVGKSSLMNRYVTNKFDSQAFHTIGVEFLNRDLEVDGRFVTLQIWDTAGQERFKSLRTPFYRGADCCLLTFSVDDRQSFENLGNWQKEFIYYADVKDPEHFPFVVLGNKVDKEDRQVTTEEAQTWCMENGDYPYLETSAKDDTNVTVAFEEAVRQVLAVEEQLEHCMLGHTIDLNSGSKAGSSCC
modifications: full-length
B2: Q8WUD1 (protein, UniProt Q8WUD1 1-216, looked up)
chain: MTYAYLFKYIIIGDTGVGKSCLLLQFTDKRFQPVHDLTIGVEFGARMVNIDGKQIKLQIWDTAGQESFRSITRSYYRGAAGALLVYDITRRETFNHLTSWLEDARQHSSSNMVIMLIGNKSDLESRRDVKREEGEAFAREHGLIFMETSAKTACNVEEAFINTAKEIYRKIQQGLFDVHNEANGIKIGPQQSISTSVGPSASQRNSRDIGSNSGCC
modifications: full-length
B3: Q9UL25 (protein, UniProt Q9UL25 1-225, looked up)
chain: MAAAGGGGGGAAAAGRAYSFKVVLLGEGCVGKTSLVLRYCENKFNDKHITTLQASFLTKKLNIGGKRVNLAIWDTAGQERFHALGPIYYRDSNGAILVYDITDEDSFQKVKNWVKELRKMLGNEICLCIVGNKIDLEKERHVSIQEAESYAESVGAKHYHTSAKQNKGIEELFLDLCKRMIETAQVDERAKGNGSSQPGTARRGVQIIDDEPQAQTSGGGCCSSG
modifications: full-length
B4: Q9Y4G8 (protein, UniProt Q9Y4G8 1-1499, looked up)
chain: MKPLAIPANHGVMGQQEKHSLPADFTKLHLTDSLHPQVTHVSSSHSGCSITSDSGSSSLSDIYQATESEAGDMDLSGLPETAVDSEDDDDEEDIERASDPLMSRDIVRDCLEKDPIDRTDDDIEQLLEFMHQLPAFANMTMSVRRELCAVMVFAVVERAGTIVLNDGEELDSWSVILNGSVEVTYPDGKAEILCMGNSFGVSPTMDKEYMKGVMRTKVDDCQFVCIAQQDYCRILNQVEKNMQKVEEEGEIVMVKEHRELDRTGTRKGHIVIKGTSERLTMHLVEEHSVVDPTFIEDFLLTYRTFLSSPMEVGKKLLEWFNDPSLRDKVTRVVLLWVNNHFNDFEGDPAMTRFLEEFENNLEREKMGGHLRLLNIACAAKAKRRLMTLTKPSREAPLPFILLGGSEKGFGIFVDSVDSGSKATEAGLKRGDQILEVNGQNFENIQLSKAMEILRNNTHLSITVKTNLFVFKELLTRLSEEKRNGAPHLPKIGDIKKASRYSIPDLAVDVEQVIGLEKVNKKSKANTVGGRNKLKKILDKTRISILPQKPYNDIGIGQSQDDSIVGLRQTKHIPTALPVSGTLSSSNPDLLQSHHRILDFSATPDLPDQVLRVFKADQQSRYIMISKDTTAKEVVIQAIREFAVTATPDQYSLCEVSVTPEGVIKQRRLPDQLSKLADRIQLSGRYYLKNNMETETLCSDEDAQELLRESQISLLQLSTVEVATQLSMRNFELFRNIEPTEYIDDLFKLRSKTSCANLKRFEEVINQETFWVASEILRETNQLKRMKIIKHFIKIALHCRECKNFNSMFAIISGLNLAPVARLRTTWEKLPNKYEKLFQDLQDLFDPSRNMAKYRNVLNSQNLQPPIIPLFPVIKKDLTFLHEGNDSKVDGLVNFEKLRMIAKEIRHVGRMASVNMDPALMFRTRKKKWRSLGSLSQGSTNATVLDVAQTGGHKKRVRRSSFLNAKKLYEDAQMARKVKQYLSNLELEMDEESLQTLSLQCEPATNTLPKNPGDKKPVKSETSPVAPRAGSQQKAQSLPQPQQQPPPAHKINQGLQVPAVSLYPSRKKVPVKDLPPFGINSPQALKKILSLSEEGSLERHKKQAEDTISNASSQLSSPPTSPQSSPRKGYTLAPSGTVDNFSDSGHSEISSRSSIVSNSSFDSVPVSLHDERRQRHSVSIVETNLGMGRMERRTMIEPDQYSLGSYAPMSEGRGLYATATVISSPSTEELSQDQGDRASLDAADSGRGSWTSCSSGSHDNIQTIQHQRSWETLPFGHTHFDYSGDPAGLWASSSHMDQIMFSDHSTKYNRQNQSRESLEQAQSRASWASSTGYWGEDSEGDTGTIKRRGGKDVSIEAESSSLTSVTTEETKPVPMPAHIAVASSTTKGLIARKEGRYREPPPTPPGYIGIPITDFPEGHSHPARKPPDYNVALQRSRMVARSSDTAGPSSVQQPHGHPTSSRPVNKPQWHKPNESDPRLAPYQSQGFSTEEDEDEQVSAV
modifications: full-length

assay: TMTcalibrator quantification of regulated proteins in AD CSF versus control; set-up: species or system human; settings: CSF of AD patient versus control; non-modified peptides of each protein summed for three control and three AD cases

| Molecule | Log2 AD/Control |
| --- | --- |
| B1 | 1.47 |
| B2 | 0.80 |
| B3 | 0.69 |
| B4 | 0.72 |
